# Assay results from PubChem BioAssay AID445 (National Center for Advancing Translational Sciences (NCATS), 2006).
# The other results are listed elsewhere or left out. Shown are side measurements of this screen, not its main read-out; they come without a call. Compounds called inactive in the main read-out are mostly missing here. Words in brackets tell the shape of the fitted curve; partial curves, single points and poor fits give uncertain potencies.
# Assay: IkB Signaling
# Conditions: ABC-DLBCL IkBa-CBG/CBR dual luciferase ratio (green luciferase fused to IkBa over red control in OCI-Ly3 lymphoma cells), 4 h
# Method in brief: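 Curves were fitted separately to fusion (green), unfused (red) and ratio luminescence, then classed by r2, magnitude and activity. Cells: OCI-Ly3, 4 h compound plus doxycycline at 37C; 10 uM MG-132 defined full response.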
# [1] = measured here: control luc red channel unless noted
# [2] = measured here: IkB-luc green channel
# [3] = measured here: control luc red channel
smiles,measurement,setting,value
Nc1c(S(=O)(=O)c2cccc(Cl)c2)c2nc3ccccc3nc2n1/N=C/c1ccc(O)c(O)c1,AC50,[1],"12.6 µM [falling, partial curve]"
Cn1c(=O)oc2cc(S(=O)(=O)CCC(=O)NCc3ccc(Cl)cc3)ccc21,AC50,[1],"6.31 µM [falling, single point]"
Cc1nn(C(=O)c2cccs2)c(N)c1-c1ccccc1,AC50,[1],"2 µM [rising, partial curve]"
Cc1nn(C)c(C)c1CNC(=O)c1nn2c(c1Cl)NC(c1cccs1)CC2C(F)(F)F (stereo not given),AC50,[1],"15.8 µM [falling, partial curve]"
CCOCCn1ccc2c(OCC(=O)Nc3cc(C)cc(C)c3)cccc2c1=O,AC50,[1],"3.16 µM [rising, single point]"
Cc1ccc(NC(=O)N2CC=C(c3c[nH]c4ccccc34)CC2)cc1Cl,AC50,[1],"10 µM [falling, partial curve]"
Cc1ccc(NS(=O)(=O)c2ccc(-n3cccn3)cc2)c(Br)c1,AC50,[1],"12.6 µM [falling, partial curve]"
COc1ccc(CC(=O)Nc2nccs2)cc1OC,AC50,[1],"39.8 µM [falling, single point]"
CCOc1ccccc1C(=O)Nc1cccc(-c2nc3ccccc3s2)c1,AC50,[1],"39.8 µM [falling, partial curve]"
COc1ccc(-c2cn3c(n2)sc2cc(C(=O)NCCc4ccccc4)ccc23)cc1,AC50,[1],"25.1 µM [falling, single point]"
Cc1cccc2sc(NC(=O)CNS(=O)(=O)c3ccc(Br)s3)nc12,AC50,[2],"39.8 µM [rising, single point]"
same,AC50,[3],"15.8 µM [falling, partial curve]"
O=C(OCc1cc(=O)n2nc(C3CC3)sc2n1)c1cccc(NC(=O)c2ccccc2Cl)c1,AC50,[1],"25.1 µM [falling, partial curve]"
COc1ccc(-n2ncc(C(=O)NCc3cccs3)c2C2CCN(C(=O)OC(C)(C)C)CC2)cc1,AC50,[1],"25.1 µM [falling, partial curve]"
CCc1ccccc1N(CC)C(=O)c1cc2c(s1)-c1ccccc1SC2,AC50,[1],"15.8 µM [falling, partial curve]"
O=C(Nc1ccncc1)c1c(F)cccc1F,AC50,[1],"10 µM [falling, partial curve]"
Cn1c(SCc2ccc(F)cc2)nc2ccc(C(=O)NCc3cccc(Cl)c3)cc21,AC50,[1],"10 µM [falling, partial curve]"
COc1ccc2c(CNC3CCC(C)CC3)c(C(=O)O)n(Cc3ccc(F)cc3)c2c1 (stereo not given),AC50,[1],"15.8 µM [falling, partial curve]"
Cc1ccc(C(=O)NCCc2csc(-c3cccc(F)c3)n2)cc1C,AC50,[1],"31.6 µM [falling, single point]"
COc1ccc(-c2noc(CN(C(=O)c3ccc(C)cc3C)C(C)C)n2)cc1,AC50,[1],"20 µM [falling, partial curve]"
CCOC(=O)c1ccccc1NC(=O)CSc1ccc(-c2sc(C)nc2C)nn1,AC50,[1],"0.00631 µM [rising, full curve, poor fit]"
CCN(C(=O)c1c(C)oc2ncnc(N3CCCCC3)c12)c1cc(C)ccc1C,AC50,[1],"39.8 µM [falling, single point]"
CCOC(=O)c1cnc2c(ccc3ccccc32)c1Nc1ccccc1O,AC50,[1],"6.31 µM [falling, full curve]"
COc1ccc(CNC(=O)C2CCN(S(=O)(=O)c3cccc(-c4noc(C)n4)c3)CC2)cc1,AC50,[1],"5.01 µM [rising, partial curve]"
COc1ccccc1NC(=O)CSc1nnc(-c2ccoc2C)n1CCc1ccccc1,AC50,[1],"10 µM [falling, partial curve]"
Cc1cccc(Cn2c(CN3CCC(C(=O)NC(C)C)CC3)cc3ccccc32)c1,AC50,[1],"5.01 µM [falling, partial curve]"
Cc1ccc(NC(=O)CSCc2cc(=O)c3ccccc3[nH]2)c(C)c1,AC50,[1],"3.16 µM [falling, single point]"
Cn1c(=O)c2c(SCc3cccnc3)nc(CC(C)(C)C)nc2n(C)c1=O,AC50,[1],"20 µM [falling, partial curve]"
COc1ccc(CNC(=O)c2cc(-c3ccccc3O)n[nH]2)cc1,AC50,[1],"3.16 µM [falling, partial curve]"
Cc1cccc(Nc2nc(-c3ccccc3)nc3ccccc23)c1,AC50,[2],"20 µM [falling, partial curve]"
same,AC50,[3],"20 µM [falling, partial curve]"
O=S(=O)(c1ccccc1)n1nc(-c2ccco2)nc1NCc1ccccc1,AC50,[1],"20 µM [falling, partial curve]"
CCC(Sc1nnc(-c2ccc(F)cc2)c(-c2ccc(F)cc2)n1)C(=O)NC1CCCC1 (stereo not given),AC50,[1],"25.1 µM [falling, single point]"
COc1ccccc1-c1cc(C(=O)Nc2cccnc2)no1,AC50,[2],"6.31 µM [rising, partial curve]"
same,AC50,[3],"2.51 µM [falling, full curve]"
O=C(CSc1nc2c([nH]c3ccccc32)c(=O)n1-c1ccccc1F)Nc1cccc(Cl)c1,AC50,[1],"31.6 µM [falling, single point]"
CCC(=O)N1CCc2cc(S(=O)(=O)CCC(=O)Nc3cc(Cl)ccc3OC)ccc21,AC50,[1],"20 µM [falling, partial curve]"
Cc1ccc(-c2nnc3ccccc3c2C(=O)Nc2ccc(F)cc2)cc1,AC50,[1],"31.6 µM [falling, partial curve]"
Cc1ccccc1-n1c(C)nnc1SCc1nc2ccccc2s1,AC50,[1],"2.51 µM [falling, partial curve]"
COc1ccccc1Nc1nn2c(=O)c3ccc(C(=O)NCCc4ccccc4)cc3nc2s1,AC50,[1],"10 µM [falling, partial curve]"
Cc1ccn2c(Nc3ccccc3)c(-c3c[nH]c4ccccc34)nc2c1,AC50,[1],"0.0251 µM [falling, full curve]"
COc1ccccc1-c1nn(CCC(=O)Nc2ccc(C)cc2)c2nc(C)cc(C)c12,AC50,[1],"20 µM [falling, single point]"
COc1ccc(S(=O)(=O)Nc2cccc(-c3ccc(N4CCCC4)nn3)c2)cc1F,AC50,[1],"5.01 µM [falling, partial curve]"
O=C(CCn1c(SCC(=O)NCc2ccco2)nc2ccccc2c1=O)NCCc1ccccc1,AC50,[1],"3.98 µM [falling, partial curve]"
CCCCCn1c(CCCNC(=O)c2ccccc2OC)nc2ccccc21,AC50,[1],"10 µM [falling, partial curve]"
O=C(NCc1ccccc1Cl)C1=Cc2cc(Br)ccc2OC1,AC50,[1],"31.6 µM [falling, partial curve]"
CCOC(=O)c1c(C)[nH]c(C(=O)CSc2ccccc2)c1C,AC50,[1],"0.398 µM [rising, partial curve]"
Cc1cc(C(=O)OCC(=O)NCc2ccco2)c(C)n1-c1ccc(F)cc1,AC50,[1],"12.6 µM [rising, partial curve] [measured here: IkB-luc green channel]"
O=C(NCC(c1ccc2c(c1)OCO2)N1CCN(c2ccccc2)CC1)C(=O)Nc1ccccc1F (stereo not given),AC50,[1],"12.6 µM [falling, partial curve]"
CCOc1ccc(NC(=O)CC2C(=O)N(c3ccc(OC)cc3)C(=O)N2CCC2=CCCCC2)cc1 (stereo not given),AC50,[1],"31.6 µM [falling, single point]"
CC(=O)Nc1cccc(-c2nnc(SCC(=O)c3cc([N+](=O)[O-])ccc3Cl)o2)c1,AC50,[2],"31.6 µM [rising, partial curve]"
same,AC50,[3],"15.8 µM [falling, partial curve]"
COc1cccc(N2CCN(C(=O)c3ccc4nc(N5CCC(C)CC5)sc4c3)CC2)c1,AC50,[1],"1.58 µM [falling, full curve]"
CCOC(=O)c1cnc2ccc(C(=O)OC)cc2c1Nc1ccc(OCc2ccccc2Cl)cc1,AC50,[1],"39.8 µM [falling, single point]"
OCCn1c(CSc2nnc(-c3ccco3)n2-c2ccccc2)nc2ccc(Cl)cc21,AC50,[1],"3.98 µM [falling, partial curve, poor fit]"
O=C(NCc1cccc(Br)c1)C1CCCCN1S(=O)(=O)c1ccc(F)cc1 (stereo not given),AC50,[1],"31.6 µM [falling, single point]"
COc1cccc(NC(=O)C(C)n2c(=O)cc(C(F)(F)F)c3c(C)nn(C)c32)c1 (stereo not given),AC50,[1],"7.94 µM [falling, partial curve]"
CCc1ccc(CNC(=O)CN2C(=O)C3CCCCN3c3ccc(C(=O)N4CCCC4)cc32)cc1 (stereo not given),AC50,[1],"20 µM [falling, partial curve, poor fit]"
COc1ccc(N2CSC3=C(C#N)C(c4ccc(OC)c(OC)c4)CC(=O)N3C2)c(OC)c1 (stereo not given),AC50,[1],"25.1 µM [rising, partial curve] [measured here: IkB-luc green channel]"
CC(C)Oc1ccc(CNC(=O)C(C)n2ccc3cc(S(=O)(=O)N4CCCCCC4)ccc32)cc1 (stereo not given),AC50,[1],"12.6 µM [falling, partial curve]"
CCOc1ccccc1NC(=O)Cn1c(=O)nc(-c2ccccc2F)c2cc(Cl)ccc21,AC50,[1],"25.1 µM [falling, single point]"
Cc1ccc(-c2csc(N3CCC(NS(=O)(=O)c4ccc5c(c4)OCCO5)CC3)n2)cc1,AC50,[1],"5.01 µM [falling, partial curve]"
COc1ccc(OCc2nc3ccccc3n2Cc2ccc(C(C)(C)C)cc2)cc1,AC50,[1],"20 µM [falling, partial curve]"
CCN(CC)C(=O)Cn1c(SCC(=O)Nc2ccc(F)cc2)nc2ccccc21,AC50,[1],"15.8 µM [falling, partial curve]"
Cc1ccc(-c2nnc(Nc3ccc(OCC(N)=O)cc3)c3ccccc23)cc1S(=O)(=O)NCC1CCCO1 (stereo not given),AC50,[1],"25.1 µM [falling, partial curve]"

# 6 entries picked at random from the list so far, as already listed:
smiles,measurement,setting,value
COc1cccc(NC(=O)C(C)n2c(=O)cc(C(F)(F)F)c3c(C)nn(C)c32)c1 (stereo not given),AC50,[1],"7.94 µM [falling, partial curve]"
COc1ccc(S(=O)(=O)Nc2cccc(-c3ccc(N4CCCC4)nn3)c2)cc1F,AC50,[1],"5.01 µM [falling, partial curve]"
Cn1c(=O)c2c(SCc3cccnc3)nc(CC(C)(C)C)nc2n(C)c1=O,AC50,[1],"20 µM [falling, partial curve]"
COc1ccccc1Nc1nn2c(=O)c3ccc(C(=O)NCCc4ccccc4)cc3nc2s1,AC50,[1],"10 µM [falling, partial curve]"
COc1ccccc1-c1cc(C(=O)Nc2cccnc2)no1,AC50,[3],"2.51 µM [falling, full curve]"
Cn1c(=O)oc2cc(S(=O)(=O)CCC(=O)NCc3ccc(Cl)cc3)ccc21,AC50,[1],"6.31 µM [falling, single point]"
